Reference: PMC9284800
No constants are given. Whether binding was seen depends on the method and setting. Binding seen in cells or lysates may run through a third protein. Some binding calls cover weakened binding; strength is not graded here.

By UniProt entry, the sequences of proteins in these tests, tags left out.
UniProt P17676: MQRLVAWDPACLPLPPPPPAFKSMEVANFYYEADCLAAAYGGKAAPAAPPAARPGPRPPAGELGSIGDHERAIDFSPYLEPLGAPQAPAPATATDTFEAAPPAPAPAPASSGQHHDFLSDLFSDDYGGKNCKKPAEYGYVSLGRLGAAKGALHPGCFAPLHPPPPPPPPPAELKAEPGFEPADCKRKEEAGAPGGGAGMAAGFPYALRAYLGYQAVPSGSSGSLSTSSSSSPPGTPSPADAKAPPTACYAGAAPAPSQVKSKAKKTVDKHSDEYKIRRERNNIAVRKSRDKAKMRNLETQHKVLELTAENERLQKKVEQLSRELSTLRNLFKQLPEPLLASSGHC
UniProt Q00987: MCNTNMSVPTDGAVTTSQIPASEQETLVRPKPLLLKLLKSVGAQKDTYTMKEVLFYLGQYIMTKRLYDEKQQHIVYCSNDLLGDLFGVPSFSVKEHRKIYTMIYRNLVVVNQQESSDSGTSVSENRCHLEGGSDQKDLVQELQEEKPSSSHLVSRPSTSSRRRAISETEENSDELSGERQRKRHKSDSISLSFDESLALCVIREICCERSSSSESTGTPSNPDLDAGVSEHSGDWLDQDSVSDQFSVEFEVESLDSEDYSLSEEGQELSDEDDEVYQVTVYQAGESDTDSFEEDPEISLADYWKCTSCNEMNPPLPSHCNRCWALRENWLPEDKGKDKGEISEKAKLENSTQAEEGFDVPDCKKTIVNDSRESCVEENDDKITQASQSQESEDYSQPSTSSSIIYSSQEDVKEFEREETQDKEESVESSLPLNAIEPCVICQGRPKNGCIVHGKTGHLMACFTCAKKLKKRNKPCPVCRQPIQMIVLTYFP

Target: CCAAT/enhancer binding protein (C/EBP), beta (human (endogenous in GSC267)) (UniProt P17676)
Assay: co-IP; lysates of GSC267 cells transfected with PDIA3P1 or shPDIA3P1; antibody coupled to protein A/G magnetic beads (Pierce Classic Magnetic IP/Co-IP Kit), western blot; which antibody precipitated is not told

- binding: binds
Substance: mouse double minute 2 homolog (MDM2) (from UniProt Q00987 1-491)
